Laboratory results reported in article PMC8769072, “Proteome‐scale mapping of binding sites in the unstructured regions of the human proteome” (Molecular Systems Biology, 2022).

Tests used:
[1] = target: importin subunit alpha‐3 (KPNA4) Arm domain, GST-tagged bait (human); assay: proteomic peptide-phage display (ProP-PD); GST-tagged bait immobilised in MaxiSorp wells; results of several HD2 libraries combined, the library of the hit is not told; only the target purified
[2] = target: Talin‐1 (TLN1) phosphotyrosine binding (PTB)‐like domain, GST-tagged bait (human); assay: proteomic peptide-phage display (ProP-PD); GST-tagged bait immobilised in MaxiSorp wells; whole HD2 library on M13 major coat protein P8 (multivalent) in PBS; four rounds, triplicate selections, NGS of the enriched pools; medium/high confidence peptides; only the target purified
[3] = target: TNKS Ank domain, GST-tagged bait (human); assay: proteomic peptide-phage display (ProP-PD); GST-tagged bait immobilised in MaxiSorp wells; results of several HD2 libraries combined, the library of the hit is not told; only the target purified

| Binder | binding [1] | also measured |
| --- | --- | --- |
| YEQMEFPLLKKRKLDD [ADNP 719-734 peptide from activity‐dependent neuroprotector homeobox protein, displayed on M13 phage] | binds | – |
| FPTDERSWVYSPLHYS | – | binding [2]: binds |
| SLAPVKRTYEQMEFPL [ADNP 711-726 peptide from activity‐dependent neuroprotector homeobox protein, displayed on M13 phage] | binds | – |
| PQLPHLQRSPPDGQSF [SH3‐binding protein 2 (SH3BP2) 408-423 peptide, displayed on M13 phage] | – | binding [3]: binds |

Results are given in words; binding and its absence hold for the method and conditions named. In cells and extracts the contact can be indirect. Here binding means that the protein was enriched with, or labelled near, the bait; the list need not be complete.
